What all share (experiment): affinity purification with mass spectrometry
Experiment [1] deals with SNAP-Flag-BRK-WT (human) (UniProt Q13882).
Experiment [2] addresses Halo-SMAD4 (human) (UniProt Q13485).
In experiment [3] the target is Halo-SMAD4 phosphorylated by BRK-YF (human) (UniProt Q13485).
Experiment [4] concerns the target Halo-SMAD4 Y353F & Y412F (human) (UniProt Q13485).

Amino acid sequences for entries named in this document (tags omitted). A change or cut given only in a name is not applied to a line headed by its entry.
UniProt Q13485: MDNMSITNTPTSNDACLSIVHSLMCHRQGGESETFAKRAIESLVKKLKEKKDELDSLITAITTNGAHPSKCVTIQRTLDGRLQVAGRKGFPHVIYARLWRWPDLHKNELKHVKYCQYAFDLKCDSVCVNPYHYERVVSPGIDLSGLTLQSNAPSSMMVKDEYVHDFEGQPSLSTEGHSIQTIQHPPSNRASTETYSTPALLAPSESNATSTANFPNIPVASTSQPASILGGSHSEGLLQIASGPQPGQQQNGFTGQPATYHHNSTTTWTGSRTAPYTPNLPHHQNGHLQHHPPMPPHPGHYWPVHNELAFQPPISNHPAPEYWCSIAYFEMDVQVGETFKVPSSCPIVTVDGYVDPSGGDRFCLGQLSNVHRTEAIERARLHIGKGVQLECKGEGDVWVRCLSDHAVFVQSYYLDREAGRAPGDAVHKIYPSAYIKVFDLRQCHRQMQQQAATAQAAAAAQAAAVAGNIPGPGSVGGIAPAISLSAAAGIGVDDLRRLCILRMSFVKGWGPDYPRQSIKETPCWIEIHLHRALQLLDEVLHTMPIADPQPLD
UniProt Q93009: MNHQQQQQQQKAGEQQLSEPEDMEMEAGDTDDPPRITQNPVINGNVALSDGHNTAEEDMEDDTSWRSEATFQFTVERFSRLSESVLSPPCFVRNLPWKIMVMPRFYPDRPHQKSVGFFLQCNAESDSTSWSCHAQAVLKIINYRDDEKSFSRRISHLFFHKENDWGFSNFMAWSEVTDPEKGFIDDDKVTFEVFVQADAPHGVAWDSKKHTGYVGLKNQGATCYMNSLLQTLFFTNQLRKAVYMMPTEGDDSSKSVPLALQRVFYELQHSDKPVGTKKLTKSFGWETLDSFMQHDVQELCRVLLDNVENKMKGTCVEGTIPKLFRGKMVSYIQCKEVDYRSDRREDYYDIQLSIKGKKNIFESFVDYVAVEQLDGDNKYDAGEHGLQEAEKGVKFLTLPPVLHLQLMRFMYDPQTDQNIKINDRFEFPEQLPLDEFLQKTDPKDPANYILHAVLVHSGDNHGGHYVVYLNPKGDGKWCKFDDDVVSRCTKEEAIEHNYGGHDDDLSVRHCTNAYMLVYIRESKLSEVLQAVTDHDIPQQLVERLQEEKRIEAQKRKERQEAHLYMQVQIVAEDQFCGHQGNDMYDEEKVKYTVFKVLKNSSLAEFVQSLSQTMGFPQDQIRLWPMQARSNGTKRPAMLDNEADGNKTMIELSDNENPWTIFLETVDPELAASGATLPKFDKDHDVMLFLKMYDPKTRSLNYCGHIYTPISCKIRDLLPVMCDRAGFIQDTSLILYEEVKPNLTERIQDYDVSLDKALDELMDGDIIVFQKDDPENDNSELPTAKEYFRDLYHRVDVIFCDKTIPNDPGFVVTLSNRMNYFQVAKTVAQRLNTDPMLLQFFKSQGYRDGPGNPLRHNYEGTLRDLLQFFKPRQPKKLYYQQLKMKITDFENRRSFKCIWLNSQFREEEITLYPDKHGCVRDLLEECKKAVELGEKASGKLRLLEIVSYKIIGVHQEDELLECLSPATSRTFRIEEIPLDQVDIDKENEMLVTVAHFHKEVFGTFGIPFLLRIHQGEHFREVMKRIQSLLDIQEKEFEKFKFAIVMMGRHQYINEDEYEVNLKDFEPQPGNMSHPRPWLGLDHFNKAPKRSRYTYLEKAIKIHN
UniProt P61244: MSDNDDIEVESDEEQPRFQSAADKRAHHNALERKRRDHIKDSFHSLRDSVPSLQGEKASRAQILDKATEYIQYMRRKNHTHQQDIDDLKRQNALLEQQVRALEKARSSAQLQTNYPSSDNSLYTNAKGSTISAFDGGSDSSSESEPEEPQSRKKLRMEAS
UniProt Q93008: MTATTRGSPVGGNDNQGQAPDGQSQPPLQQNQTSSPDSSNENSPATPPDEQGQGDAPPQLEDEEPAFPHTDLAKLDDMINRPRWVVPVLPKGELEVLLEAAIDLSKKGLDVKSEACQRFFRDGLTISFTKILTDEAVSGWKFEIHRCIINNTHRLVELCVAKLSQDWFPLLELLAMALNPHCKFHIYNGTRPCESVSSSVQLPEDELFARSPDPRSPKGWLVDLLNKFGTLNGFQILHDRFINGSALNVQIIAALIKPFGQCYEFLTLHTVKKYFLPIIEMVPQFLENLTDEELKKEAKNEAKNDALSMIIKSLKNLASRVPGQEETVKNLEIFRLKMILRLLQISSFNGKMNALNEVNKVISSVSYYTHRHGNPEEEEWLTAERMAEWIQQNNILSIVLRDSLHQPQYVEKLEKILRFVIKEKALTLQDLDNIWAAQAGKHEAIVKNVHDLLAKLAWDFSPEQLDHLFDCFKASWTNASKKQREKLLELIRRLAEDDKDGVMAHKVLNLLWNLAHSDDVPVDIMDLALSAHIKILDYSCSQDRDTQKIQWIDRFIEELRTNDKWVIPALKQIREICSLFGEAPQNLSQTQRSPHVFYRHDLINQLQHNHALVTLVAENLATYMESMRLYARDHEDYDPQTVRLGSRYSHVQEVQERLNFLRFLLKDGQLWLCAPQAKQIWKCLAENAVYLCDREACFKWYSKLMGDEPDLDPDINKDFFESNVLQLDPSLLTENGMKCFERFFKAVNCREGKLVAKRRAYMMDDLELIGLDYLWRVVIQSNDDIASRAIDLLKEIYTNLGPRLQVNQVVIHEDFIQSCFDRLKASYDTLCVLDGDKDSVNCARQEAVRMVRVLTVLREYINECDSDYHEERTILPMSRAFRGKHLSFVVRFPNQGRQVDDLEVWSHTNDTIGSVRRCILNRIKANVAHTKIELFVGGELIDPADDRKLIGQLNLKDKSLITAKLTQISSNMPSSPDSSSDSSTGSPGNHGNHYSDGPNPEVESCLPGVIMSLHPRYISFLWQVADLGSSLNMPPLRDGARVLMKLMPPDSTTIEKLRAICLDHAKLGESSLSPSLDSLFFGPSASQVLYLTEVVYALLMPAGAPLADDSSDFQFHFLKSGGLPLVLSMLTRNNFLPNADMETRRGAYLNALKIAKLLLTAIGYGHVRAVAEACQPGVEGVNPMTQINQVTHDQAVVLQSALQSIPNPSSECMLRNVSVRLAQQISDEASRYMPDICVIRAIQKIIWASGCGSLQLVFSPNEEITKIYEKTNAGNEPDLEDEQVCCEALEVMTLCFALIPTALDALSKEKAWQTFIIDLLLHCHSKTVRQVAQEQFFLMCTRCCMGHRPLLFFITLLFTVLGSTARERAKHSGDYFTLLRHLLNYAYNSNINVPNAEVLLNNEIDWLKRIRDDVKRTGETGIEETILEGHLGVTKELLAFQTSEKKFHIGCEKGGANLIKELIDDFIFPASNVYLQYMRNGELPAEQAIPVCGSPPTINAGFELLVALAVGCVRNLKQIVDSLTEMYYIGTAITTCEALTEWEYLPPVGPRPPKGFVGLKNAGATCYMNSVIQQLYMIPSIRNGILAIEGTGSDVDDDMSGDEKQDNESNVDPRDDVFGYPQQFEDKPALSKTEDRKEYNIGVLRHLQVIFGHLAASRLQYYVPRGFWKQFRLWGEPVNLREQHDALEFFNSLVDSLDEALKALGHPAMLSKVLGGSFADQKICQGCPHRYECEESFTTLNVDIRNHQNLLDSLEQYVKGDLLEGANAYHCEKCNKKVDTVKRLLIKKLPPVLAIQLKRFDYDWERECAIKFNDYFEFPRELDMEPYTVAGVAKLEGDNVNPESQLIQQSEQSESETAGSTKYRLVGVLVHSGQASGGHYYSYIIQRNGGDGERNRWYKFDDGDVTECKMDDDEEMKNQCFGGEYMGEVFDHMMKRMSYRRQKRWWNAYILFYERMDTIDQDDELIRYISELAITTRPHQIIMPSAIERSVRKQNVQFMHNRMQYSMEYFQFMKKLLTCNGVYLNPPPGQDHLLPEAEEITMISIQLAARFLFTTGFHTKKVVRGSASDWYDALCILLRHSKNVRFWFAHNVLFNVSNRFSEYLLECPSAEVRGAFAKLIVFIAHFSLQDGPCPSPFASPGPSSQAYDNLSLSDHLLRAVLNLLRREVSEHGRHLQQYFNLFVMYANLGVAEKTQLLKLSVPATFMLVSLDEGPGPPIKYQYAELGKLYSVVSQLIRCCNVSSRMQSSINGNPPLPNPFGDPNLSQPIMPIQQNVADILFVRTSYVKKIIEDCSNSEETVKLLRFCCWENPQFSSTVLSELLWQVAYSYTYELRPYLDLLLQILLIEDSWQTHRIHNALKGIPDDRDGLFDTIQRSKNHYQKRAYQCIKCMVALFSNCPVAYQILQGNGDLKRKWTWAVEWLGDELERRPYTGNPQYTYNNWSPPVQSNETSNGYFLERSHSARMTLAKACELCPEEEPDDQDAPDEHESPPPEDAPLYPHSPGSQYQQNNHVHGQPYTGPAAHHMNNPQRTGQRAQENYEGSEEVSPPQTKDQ
UniProt Q92769: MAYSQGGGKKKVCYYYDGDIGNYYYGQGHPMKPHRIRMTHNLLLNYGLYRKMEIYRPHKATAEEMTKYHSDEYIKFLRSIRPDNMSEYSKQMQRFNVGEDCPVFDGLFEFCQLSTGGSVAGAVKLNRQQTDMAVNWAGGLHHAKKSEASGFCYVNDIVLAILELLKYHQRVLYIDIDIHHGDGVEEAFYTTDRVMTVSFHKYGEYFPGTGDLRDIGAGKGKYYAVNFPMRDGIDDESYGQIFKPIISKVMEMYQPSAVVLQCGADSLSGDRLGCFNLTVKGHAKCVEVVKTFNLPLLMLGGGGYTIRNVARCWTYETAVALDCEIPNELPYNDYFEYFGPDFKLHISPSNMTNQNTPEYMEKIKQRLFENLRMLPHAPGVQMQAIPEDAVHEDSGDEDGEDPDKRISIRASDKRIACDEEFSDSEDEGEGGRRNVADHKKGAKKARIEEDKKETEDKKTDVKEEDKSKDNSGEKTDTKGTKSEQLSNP
UniProt O15198: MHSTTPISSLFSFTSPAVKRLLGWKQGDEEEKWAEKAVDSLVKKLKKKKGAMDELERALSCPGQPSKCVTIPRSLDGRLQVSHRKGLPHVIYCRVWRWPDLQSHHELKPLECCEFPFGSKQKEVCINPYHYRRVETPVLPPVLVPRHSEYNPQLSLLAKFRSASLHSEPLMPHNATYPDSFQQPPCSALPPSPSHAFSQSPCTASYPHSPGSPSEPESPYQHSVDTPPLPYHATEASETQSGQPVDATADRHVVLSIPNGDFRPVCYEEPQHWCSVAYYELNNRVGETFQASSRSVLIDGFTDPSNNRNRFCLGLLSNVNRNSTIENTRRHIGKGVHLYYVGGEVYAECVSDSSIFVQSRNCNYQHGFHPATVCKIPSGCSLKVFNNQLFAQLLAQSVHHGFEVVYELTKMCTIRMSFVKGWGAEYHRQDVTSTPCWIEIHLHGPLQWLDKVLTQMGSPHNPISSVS
UniProt Q99717: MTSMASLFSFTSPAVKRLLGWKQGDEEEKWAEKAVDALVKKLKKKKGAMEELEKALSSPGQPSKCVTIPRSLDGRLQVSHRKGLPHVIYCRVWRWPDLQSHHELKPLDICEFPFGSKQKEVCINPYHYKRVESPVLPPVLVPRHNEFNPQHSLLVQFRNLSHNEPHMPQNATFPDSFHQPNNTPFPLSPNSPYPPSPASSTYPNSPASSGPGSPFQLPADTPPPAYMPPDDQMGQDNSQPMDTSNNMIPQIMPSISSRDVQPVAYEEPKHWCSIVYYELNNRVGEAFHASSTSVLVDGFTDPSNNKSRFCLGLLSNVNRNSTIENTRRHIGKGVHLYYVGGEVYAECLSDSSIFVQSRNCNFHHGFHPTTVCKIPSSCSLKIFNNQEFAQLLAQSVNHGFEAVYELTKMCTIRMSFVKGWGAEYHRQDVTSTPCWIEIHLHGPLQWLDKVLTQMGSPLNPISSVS
UniProt Q15797: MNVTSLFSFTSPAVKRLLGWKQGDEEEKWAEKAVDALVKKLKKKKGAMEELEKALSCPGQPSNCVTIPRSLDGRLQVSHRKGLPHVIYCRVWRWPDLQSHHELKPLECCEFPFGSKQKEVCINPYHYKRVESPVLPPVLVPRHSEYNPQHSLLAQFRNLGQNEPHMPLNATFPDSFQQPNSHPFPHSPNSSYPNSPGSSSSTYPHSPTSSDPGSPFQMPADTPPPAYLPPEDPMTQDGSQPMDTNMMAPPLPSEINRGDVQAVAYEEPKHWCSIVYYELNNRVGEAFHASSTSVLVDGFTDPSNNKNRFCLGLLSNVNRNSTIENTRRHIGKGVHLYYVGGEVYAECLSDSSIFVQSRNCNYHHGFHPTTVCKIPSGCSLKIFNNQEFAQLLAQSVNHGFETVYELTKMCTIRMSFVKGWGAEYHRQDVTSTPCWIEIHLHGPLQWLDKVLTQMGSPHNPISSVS

No constants are given. Whether binding was seen depends on the method and setting. Binding seen in cells or lysates may run through a third protein. These calls come from enrichment with a bait or labelling near it, and not all partners need be listed. For some assays here: No binding means not detected with the bait.

Take Halo-SMAD4 (from UniProt Q13485 1-552): in experiment [1], the binding entry is reported as “binds”. As for “SNAP-Flag-BRK-WT (from UniProt Q13882 1-451) (enzyme)”, in experiment [2], the binding result is “binds”. As to “USP7 (from UniProt Q93009 1-1102) (enzyme)”, the binding entry in experiment [3], in experiment [2] and in experiment [4] was “binds” each time. As for MAX (from UniProt P61244 1-160), in experiment [4], the binding result is “no binding”. As to “USP9X (from UniProt Q93008 1-2554) (enzyme)”, the binding result in experiment [3], in experiment [2] and in experiment [4] was “binds” throughout.

In the case of “HERC2 (from UniProt O95714 1-4834) (enzyme)”, the binding entry in experiment [3] is “binds”; in experiment [4], “no binding”. Take “HDAC2 (from UniProt Q92769 1-488) (enzyme)”: the binding entry in experiment [3] is given as “binds”. Consider SMAD8/9 (from UniProt O15198 1-467), for which the binding entry in experiment [3], in experiment [2] and in experiment [4] was “binds” throughout. For the substance SMAD3 (from UniProt P84022 1-425), in experiment [4], the binding result was “no binding”. Same read-out and setting: the entry for FOXK2 (from UniProt Q01167 1-660) is “no binding”. As for SMAD5 (from UniProt Q99717 1-465), the binding result in experiment [3], in experiment [2] and in experiment [4] was “binds” throughout. Regarding SMAD1 (from UniProt Q15797 1-465), the binding result in experiment [3], in experiment [2] and in experiment [4] was “binds” each time.

Values taken from paper doi:10.1101/458190.
